Some of the results follow. Residues, ends and D or L forms follow the SMILES beside them. *: point of attachment. Cbz = O=C(OCc1ccccc1)*
Tests used:
Assay in all cases: log2 fold change, soluble protein after heating vs DMSO (PISA); higher = thermal stabilisation; K562 cells, 10 uM, 30 min; active = over 0.2 and 3.5 SD of the protein, either way, in both replicates (recomputed)
IRAK-1-4 Inhibitor I = compound: C1COCCN1CCN2C3=CC=CC=C3N=C2NC(=O)C4=CC(=CC=C4)[N+](=O)[O-] [IRAK-1-4 Inhibitor I]
In short: (§1)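 Thermal stability values are relative to control samples and come from duplicates. They are expressed as log2 fold changes. For measurement, K562 cells (2×10^6 cells/mL) received 10 μM compound for 30 min, and aliquots were heated for 3 min over 48°C-58°C, pooled, and extracted at 4°C in PBS with 0.5% NP-40. Soluble protein, the supernatant after 21,000xg for 90 min, was quantified by TMTpro 16plex LC-MS/MS with equalised channel sums.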

The chains behind the UniProt entries cited, without tags or fusion partners. Where a name states a change or a piece, a line headed by the entry shows the natural chain unless it says otherwise.
UniProt O43390: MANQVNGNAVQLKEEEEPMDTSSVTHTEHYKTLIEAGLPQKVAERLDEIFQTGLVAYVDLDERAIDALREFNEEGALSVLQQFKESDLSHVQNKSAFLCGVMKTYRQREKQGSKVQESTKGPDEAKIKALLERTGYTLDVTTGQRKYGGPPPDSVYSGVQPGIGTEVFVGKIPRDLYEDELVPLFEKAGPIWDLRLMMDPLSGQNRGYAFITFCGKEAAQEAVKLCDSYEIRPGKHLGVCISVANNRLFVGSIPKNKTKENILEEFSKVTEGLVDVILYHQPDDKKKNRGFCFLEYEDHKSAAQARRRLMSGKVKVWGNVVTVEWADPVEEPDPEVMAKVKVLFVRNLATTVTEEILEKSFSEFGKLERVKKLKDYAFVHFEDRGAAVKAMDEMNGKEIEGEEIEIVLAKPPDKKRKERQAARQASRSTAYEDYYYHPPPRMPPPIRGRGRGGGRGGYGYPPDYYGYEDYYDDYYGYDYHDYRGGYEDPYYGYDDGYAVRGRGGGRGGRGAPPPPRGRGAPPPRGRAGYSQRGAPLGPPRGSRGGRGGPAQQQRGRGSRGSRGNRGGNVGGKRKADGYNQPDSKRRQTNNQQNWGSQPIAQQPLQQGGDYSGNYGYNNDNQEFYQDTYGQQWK
UniProt O60921: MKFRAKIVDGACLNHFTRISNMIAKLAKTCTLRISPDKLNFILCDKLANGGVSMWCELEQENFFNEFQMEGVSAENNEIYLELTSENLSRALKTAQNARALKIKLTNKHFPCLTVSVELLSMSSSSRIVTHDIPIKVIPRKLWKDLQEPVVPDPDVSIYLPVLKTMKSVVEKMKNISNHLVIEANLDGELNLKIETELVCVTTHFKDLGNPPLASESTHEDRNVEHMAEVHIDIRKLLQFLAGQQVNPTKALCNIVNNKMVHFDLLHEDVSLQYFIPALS
UniProt Q00839, whole entry, looked up: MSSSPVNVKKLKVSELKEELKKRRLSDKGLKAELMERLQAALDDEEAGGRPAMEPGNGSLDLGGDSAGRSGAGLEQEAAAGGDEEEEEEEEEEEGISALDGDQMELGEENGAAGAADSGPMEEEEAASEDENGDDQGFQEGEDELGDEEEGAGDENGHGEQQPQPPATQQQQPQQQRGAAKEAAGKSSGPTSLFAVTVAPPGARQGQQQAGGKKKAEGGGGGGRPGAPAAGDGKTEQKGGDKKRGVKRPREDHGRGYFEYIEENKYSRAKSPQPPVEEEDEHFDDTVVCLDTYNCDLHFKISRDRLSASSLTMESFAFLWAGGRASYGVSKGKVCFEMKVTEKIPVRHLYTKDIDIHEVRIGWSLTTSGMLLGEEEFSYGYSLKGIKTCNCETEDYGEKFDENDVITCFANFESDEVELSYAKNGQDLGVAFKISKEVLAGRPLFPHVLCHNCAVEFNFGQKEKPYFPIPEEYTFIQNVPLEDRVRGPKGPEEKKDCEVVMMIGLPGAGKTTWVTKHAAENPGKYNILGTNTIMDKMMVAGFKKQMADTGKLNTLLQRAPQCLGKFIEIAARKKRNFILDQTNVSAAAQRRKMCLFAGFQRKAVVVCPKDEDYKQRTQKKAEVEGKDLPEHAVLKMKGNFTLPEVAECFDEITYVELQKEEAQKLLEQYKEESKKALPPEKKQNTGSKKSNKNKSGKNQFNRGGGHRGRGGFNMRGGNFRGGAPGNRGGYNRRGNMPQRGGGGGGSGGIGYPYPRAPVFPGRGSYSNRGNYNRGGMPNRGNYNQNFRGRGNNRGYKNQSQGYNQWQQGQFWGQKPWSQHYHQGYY
UniProt Q01581: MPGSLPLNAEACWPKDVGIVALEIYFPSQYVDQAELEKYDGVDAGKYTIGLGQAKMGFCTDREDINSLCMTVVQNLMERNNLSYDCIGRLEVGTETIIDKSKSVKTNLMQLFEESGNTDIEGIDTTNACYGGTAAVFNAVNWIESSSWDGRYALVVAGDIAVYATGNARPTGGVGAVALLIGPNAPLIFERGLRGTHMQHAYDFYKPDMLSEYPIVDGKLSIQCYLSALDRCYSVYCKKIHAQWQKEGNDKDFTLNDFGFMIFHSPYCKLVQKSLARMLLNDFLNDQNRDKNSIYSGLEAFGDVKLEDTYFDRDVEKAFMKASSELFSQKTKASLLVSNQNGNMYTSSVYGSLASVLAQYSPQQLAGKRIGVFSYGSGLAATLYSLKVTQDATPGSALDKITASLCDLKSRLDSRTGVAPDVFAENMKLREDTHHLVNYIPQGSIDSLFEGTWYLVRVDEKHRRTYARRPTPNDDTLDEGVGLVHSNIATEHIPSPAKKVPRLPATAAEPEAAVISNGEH
UniProt Q8TCT9: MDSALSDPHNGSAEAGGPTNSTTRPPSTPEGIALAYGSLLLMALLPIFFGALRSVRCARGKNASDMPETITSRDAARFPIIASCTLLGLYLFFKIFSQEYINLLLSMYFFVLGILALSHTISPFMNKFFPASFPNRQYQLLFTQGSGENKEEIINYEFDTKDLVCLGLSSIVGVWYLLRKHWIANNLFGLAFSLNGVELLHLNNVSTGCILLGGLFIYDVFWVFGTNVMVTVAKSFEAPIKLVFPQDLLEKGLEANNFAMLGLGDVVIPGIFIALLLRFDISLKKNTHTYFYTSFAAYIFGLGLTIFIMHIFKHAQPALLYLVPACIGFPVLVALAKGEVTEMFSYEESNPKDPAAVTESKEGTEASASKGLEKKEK
UniProt P31942: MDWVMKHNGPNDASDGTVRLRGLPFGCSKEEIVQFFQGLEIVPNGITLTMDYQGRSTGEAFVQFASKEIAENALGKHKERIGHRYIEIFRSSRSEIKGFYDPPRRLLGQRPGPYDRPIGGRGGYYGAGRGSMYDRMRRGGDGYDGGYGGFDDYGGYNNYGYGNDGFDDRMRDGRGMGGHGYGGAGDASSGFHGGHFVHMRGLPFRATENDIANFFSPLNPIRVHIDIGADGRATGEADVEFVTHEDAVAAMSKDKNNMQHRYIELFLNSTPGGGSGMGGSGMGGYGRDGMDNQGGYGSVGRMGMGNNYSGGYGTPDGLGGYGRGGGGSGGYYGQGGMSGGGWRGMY
UniProt P48723: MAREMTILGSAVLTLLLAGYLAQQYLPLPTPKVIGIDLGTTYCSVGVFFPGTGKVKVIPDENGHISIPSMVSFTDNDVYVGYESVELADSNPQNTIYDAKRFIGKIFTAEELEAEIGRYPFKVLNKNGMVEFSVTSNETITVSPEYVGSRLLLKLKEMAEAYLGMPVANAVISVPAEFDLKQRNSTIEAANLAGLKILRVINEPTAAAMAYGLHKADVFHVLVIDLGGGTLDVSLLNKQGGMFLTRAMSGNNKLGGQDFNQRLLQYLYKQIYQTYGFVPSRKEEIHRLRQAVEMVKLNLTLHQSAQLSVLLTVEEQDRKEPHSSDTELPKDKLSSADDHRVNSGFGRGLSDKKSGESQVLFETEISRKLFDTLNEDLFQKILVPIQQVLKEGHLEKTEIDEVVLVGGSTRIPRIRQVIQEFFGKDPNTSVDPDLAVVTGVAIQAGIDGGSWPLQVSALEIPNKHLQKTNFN
UniProt P11021: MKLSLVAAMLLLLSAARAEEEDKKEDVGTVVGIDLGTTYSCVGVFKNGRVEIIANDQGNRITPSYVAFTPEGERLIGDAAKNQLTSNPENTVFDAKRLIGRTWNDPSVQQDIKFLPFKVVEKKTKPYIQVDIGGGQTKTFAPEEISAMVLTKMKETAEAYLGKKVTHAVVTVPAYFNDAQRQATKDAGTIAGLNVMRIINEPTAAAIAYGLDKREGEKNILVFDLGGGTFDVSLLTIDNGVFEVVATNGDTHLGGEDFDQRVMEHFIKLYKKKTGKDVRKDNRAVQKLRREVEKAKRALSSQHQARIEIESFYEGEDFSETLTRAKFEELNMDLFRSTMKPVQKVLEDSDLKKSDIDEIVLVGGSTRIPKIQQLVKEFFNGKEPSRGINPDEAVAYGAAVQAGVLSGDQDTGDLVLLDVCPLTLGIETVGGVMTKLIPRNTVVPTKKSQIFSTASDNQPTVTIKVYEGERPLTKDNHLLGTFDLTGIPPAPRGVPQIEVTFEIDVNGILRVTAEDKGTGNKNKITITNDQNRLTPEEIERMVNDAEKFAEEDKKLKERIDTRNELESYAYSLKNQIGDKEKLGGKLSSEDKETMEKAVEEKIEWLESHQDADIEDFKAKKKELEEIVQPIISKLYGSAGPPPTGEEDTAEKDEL
UniProt P00492: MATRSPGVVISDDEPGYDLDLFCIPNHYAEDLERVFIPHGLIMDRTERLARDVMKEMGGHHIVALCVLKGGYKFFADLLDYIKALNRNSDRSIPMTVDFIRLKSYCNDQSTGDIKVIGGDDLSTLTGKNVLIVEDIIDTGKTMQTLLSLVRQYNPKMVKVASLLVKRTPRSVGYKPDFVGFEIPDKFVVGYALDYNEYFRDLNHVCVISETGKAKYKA
UniProt P34932: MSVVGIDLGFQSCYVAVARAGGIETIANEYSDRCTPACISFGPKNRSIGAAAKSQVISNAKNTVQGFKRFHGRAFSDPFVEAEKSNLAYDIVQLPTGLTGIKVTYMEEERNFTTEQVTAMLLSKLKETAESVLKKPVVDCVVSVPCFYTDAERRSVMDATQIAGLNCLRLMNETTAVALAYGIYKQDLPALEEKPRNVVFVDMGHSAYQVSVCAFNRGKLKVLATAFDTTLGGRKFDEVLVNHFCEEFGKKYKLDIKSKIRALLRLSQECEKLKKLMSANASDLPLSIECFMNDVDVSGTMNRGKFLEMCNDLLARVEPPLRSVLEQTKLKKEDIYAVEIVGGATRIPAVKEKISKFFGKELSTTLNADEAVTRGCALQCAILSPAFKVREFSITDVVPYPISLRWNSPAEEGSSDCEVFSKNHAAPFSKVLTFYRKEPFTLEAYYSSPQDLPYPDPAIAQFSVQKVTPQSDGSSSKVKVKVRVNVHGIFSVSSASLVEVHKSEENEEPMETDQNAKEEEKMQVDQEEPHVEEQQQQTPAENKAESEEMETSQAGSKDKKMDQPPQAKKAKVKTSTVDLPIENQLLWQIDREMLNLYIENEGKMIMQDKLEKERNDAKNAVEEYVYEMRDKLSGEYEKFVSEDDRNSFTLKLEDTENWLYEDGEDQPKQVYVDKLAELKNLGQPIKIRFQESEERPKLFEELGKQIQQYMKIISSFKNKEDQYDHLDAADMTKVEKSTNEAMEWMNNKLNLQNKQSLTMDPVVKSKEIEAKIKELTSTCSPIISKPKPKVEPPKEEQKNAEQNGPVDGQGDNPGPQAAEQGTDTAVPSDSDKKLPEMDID
UniProt Q14103: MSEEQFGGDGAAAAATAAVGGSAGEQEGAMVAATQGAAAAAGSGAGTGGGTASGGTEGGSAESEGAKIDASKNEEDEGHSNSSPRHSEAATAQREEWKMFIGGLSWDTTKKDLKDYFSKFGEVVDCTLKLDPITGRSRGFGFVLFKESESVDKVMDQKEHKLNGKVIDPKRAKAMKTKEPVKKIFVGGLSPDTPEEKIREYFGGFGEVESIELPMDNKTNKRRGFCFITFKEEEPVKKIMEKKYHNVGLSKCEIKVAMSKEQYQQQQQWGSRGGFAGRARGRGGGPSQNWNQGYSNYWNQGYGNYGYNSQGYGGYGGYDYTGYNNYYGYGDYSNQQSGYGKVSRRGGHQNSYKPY
UniProt P09651: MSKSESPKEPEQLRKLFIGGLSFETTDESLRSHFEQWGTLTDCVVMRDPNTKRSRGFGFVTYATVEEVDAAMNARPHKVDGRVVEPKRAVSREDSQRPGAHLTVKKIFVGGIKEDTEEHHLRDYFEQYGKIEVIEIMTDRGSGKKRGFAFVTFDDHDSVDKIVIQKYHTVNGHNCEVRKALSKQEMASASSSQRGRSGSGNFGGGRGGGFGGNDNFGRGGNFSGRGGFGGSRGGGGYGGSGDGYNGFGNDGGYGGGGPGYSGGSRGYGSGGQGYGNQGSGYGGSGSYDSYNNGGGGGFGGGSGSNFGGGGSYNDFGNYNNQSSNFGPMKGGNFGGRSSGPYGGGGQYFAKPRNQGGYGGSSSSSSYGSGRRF
UniProt Q9BTY7: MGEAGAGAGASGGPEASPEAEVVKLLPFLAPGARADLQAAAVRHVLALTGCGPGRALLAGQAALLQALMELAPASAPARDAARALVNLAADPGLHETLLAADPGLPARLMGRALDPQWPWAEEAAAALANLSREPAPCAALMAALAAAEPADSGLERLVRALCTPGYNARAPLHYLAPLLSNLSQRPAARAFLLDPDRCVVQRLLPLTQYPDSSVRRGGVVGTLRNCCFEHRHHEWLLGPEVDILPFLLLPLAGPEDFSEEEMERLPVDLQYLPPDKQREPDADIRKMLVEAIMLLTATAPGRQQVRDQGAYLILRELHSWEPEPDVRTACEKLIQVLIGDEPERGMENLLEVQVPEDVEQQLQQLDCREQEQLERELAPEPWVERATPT

ibrutinib = compound: C=CC(=O)N1CCC[C@@H](n2nc(-c3ccc(Oc4ccccc4)cc3)c3c(N)ncnc32)C1 [ibrutinib]
In short: as §1

[1] = compound: CC(=O)c1cnc2ccc(-c3cc(Cl)c(O)c(Cl)c3)nc2c1N[C@H]1CC[C@H](CN(C)C)CC1
In short: as §1

ralimetinib = compound: CC(C)(C)Cn1c(N)nc2ccc(-c3[nH]c(C(C)(C)C)nc3-c3ccc(F)cc3)nc21 [ralimetinib]
In short: as §1

[2] = compound: CC(C)(O)CC(=O)NCCn1ccc2ncnc(Nc3ccc(Oc4cccc(C(F)(F)F)c4)c(Cl)c3)c21
In short: as §1

[3] = compound: CC(C)C1=C2N=C(C=C(N2N=C1)NCC3=CC=CC=C3)NCCCCCCN
In short: as §1

[4] = compound: CC(C)C[C@@H](C=O)NC(=O)[C@H](CC(C)C)NC(=O)[C@H](CC(C)C)NC(=O)OCc1ccccc1
In short: as §1

pinometostat = compound: CC(C)N(C[C@H]1O[C@@H](n2cnc3c(N)ncnc32)[C@H](O)[C@@H]1O)[C@H]1C[C@@H](CCc2nc3cc(C(C)(C)C)ccc3[nH]2)C1 [pinometostat]
In short: as §1

[5] = compound: CC1=C(C(CC(=O)N1)C2=CC=C(C=C2)C(F)(F)F)C(=O)NC3=C(C=C4C(=C3)C=NN4)F
In short: as §1

[6] = compound: CC1=C(C2=C(C=C1)C(=O)C3=CC=CC=C3N2CCCN)C
In short: as §1

[7] = compound: CC1=C(C=C(C=C1)NC(=O)C2=CC(=CC=C2)C(C)(C)C#N)NC3=CC4=C(C=C3)N=CN(C4=O)C
In short: as §1

[8] = compound: CC1=C(C=C(C=C1)NC(=O)C2=CC(=CC=C2)N(C)C)NC(=O)C3=CC=C(C=C3)O
In short: as §1

[9] = compound: CC1=CC=C(C=C1)SC2=C3C=C(SC3=CN=C2)C(=O)N
In short: as §1

[10] = compound: CC1=NC(=CC=C1)C2=C(N=C(N2)C(C)(C)C)C3=CC4=NC=CN=C4C=C3
In short: as §1

Nexturastat A = compound: CCCCN(Cc1ccc(C(=O)NO)cc1)C(=O)Nc1ccccc1 [Nexturastat A]
In short: as §1

vemurafenib = compound: CCCS(=O)(=O)Nc1ccc(F)c(C(=O)c2c[nH]c3ncc(-c4ccc(Cl)cc4)cc23)c1F [vemurafenib]
In short: as §1

[11] = compound: CCCS(=O)(=O)Nc1ccc(F)c(C(=O)c2c[nH]c3ncc(Cl)cc23)c1F
In short: as §1

[12] = compound: CCCc1cc(C)[nH]c(=O)c1CNC(=O)c1cc(-c2ccnc(N3CCN(C)CC3)c2)cc2c1cnn2C(C)C
In short: as §1

givinostat = compound: CCN(CC)Cc1ccc2cc(COC(=O)Nc3ccc(C(=O)NO)cc3)ccc2c1 [givinostat]
In short: as §1

barasertib = compound: CCN(CCCOc1ccc2c(Nc3cc(CC(=O)Nc4cccc(F)c4)[nH]n3)ncnc2c1)CCOP(=O)(O)O [barasertib]
In short: as §1

Measured: log2 fold change

HNRNPR isoform 2 (UniProt O43390)
inactive: IRAK-1-4 Inhibitor I -0.15 | ibrutinib 0.069 | [1] 0.003 | ralimetinib 0.101 | [2] 0.077 | [3] -0.063 | [4] 0.059 | pinometostat 0.135 | [5] 0.028 | [6] -0.294 | [7] 0.113 | [8] -0.01 | [9] -0.028 | [10] -0.034 | Nexturastat A 0.16 | vemurafenib -0.068 | [11] -0.02 | [12] 0.066 | givinostat 0.024 | barasertib -0.126

HUS1 (UniProt O60921)
inactive: IRAK-1-4 Inhibitor I -0.002 | ibrutinib -0.001 | [1] -0.019 | ralimetinib -0.046 | [2] -0.048 | [3] 0.029 | [4] -0.022 | pinometostat -0.034 | [5] 0.002 | [6] 0.033 | [7] 0.02 | [8] 0 | [9] 0.014 | [10] 0.042 | Nexturastat A -0.067 | vemurafenib -0.036 | [11] 0.007 | [12] -0.046 | givinostat -0.061 | barasertib 0.022

HNRNPU (UniProt Q00839)
inactive: IRAK-1-4 Inhibitor I -0.213 | ibrutinib -0.034 | [1] -0.221 | ralimetinib 0.042 | [2] -0.06 | [3] -0.149 | [4] 0.05 | pinometostat 0.177 | [5] -0.019 | [6] -0.252 | [7] 0.06 | [8] -0.1 | [9] -0.027 | [10] -0.024 | Nexturastat A 0.301 | vemurafenib -0.032 | [11] 0.023 | [12] 0.123 | givinostat 0.168 | barasertib -0.073

HMGCS1 (UniProt Q01581)
inactive: IRAK-1-4 Inhibitor I 0.039 | ibrutinib 0.007 | [1] -0.038 | ralimetinib -0.039 | [2] -0.005 | [3] 0.007 | [4] -0.005 | pinometostat -0.022 | [5] 0.06 | [6] -0.039 | [7] -0.022 | [8] 0.019 | [9] -0.004 | [10] 0.008 | Nexturastat A -0.031 | vemurafenib -0.041 | [11] -0.005 | [12] -0.011 | givinostat -0.014 | barasertib 0.017

IDE (UniProt P14735)
inactive: IRAK-1-4 Inhibitor I -0.015 | ibrutinib -0.008 | [1] -0.034 | ralimetinib 0.05 | [2] -0.042 | [3] 0.116 | [4] 0.058 | pinometostat 0.021 | [5] 0.013 | [6] 0.084 | [7] 0.003 | [8] -0.084 | [9] 0.045 | [10] 0.008 | Nexturastat A 0.015 | vemurafenib 0.044 | [11] 0.026 | [12] -0.036 | givinostat 0.038 | barasertib 0.032

HM13 isoform 2 (UniProt Q8TCT9)
inactive: IRAK-1-4 Inhibitor I 0.03 | ibrutinib -0.019 | [1] 0.016 | ralimetinib -0.019 | [2] -0.045 | [3] 0.044 | [4] -0.037 | pinometostat -0.037 | [5] 0.007 | [6] -0.032 | [7] 0.009 | [8] 0.05 | [9] 0.026 | [10] 0.003 | Nexturastat A -0.123 | vemurafenib -0.001 | [11] -0.013 | [12] -0.059 | givinostat 0.001 | barasertib -0.019

HNRNPH3 (UniProt P31942)
inactive: IRAK-1-4 Inhibitor I -0.158 | ibrutinib -0.044 | [1] 0.098 | ralimetinib 0.243 | [2] -0.011 | [3] -0.329 | [4] 0.248 | pinometostat 0.282 | [5] 0.13 | [6] -0.222 | [7] 0.035 | [8] -0.001 | [9] -0.12 | [10] -0.03 | Nexturastat A 0.349 | vemurafenib 0.007 | [11] 0.284 | [12] 0.108 | givinostat 0.226 | barasertib -0.061

HMBS (UniProt P08397)
inactive: IRAK-1-4 Inhibitor I 0.049 | ibrutinib 0.022 | [1] 0.008 | ralimetinib -0.008 | [2] 0.01 | [3] 0.105 | [4] -0.043 | pinometostat -0.056 | [5] 0.008 | [6] -0.012 | [7] -0.01 | [8] -0.002 | [9] 0.055 | [10] 0.056 | Nexturastat A -0.082 | vemurafenib 0.026 | [11] 0.008 | [12] -0.019 | givinostat -0.042 | barasertib -0.011

HSPA13 (UniProt P48723)
inactive: IRAK-1-4 Inhibitor I -0.01 | ibrutinib 0.012 | [1] -0.023 | ralimetinib 0.023 | [2] 0.003 | [3] 0.037 | [4] 0.021 | pinometostat 0.004 | [5] 0.026 | [6] -0.086 | [7] 0.021 | [8] 0.002 | [9] 0.021 | [10] 0.03 | Nexturastat A 0.003 | vemurafenib 0.028 | [11] 0.001 | [12] 0.005 | givinostat -0.008 | barasertib 0.006

HSPA5 (UniProt P11021)
inactive: IRAK-1-4 Inhibitor I 0.026 | ibrutinib -0.028 | [1] 0 | ralimetinib -0.04 | [2] 0.038 | [3] 0.018 | [4] -0.015 | pinometostat -0.041 | [5] 0.022 | [6] -0.019 | [7] 0.006 | [8] -0.005 | [9] -0.016 | [10] 0.001 | Nexturastat A -0.102 | vemurafenib 0.002 | [11] -0.011 | [12] 0.038 | givinostat -0.018 | barasertib 0.037

HPRT1 (UniProt P00492)
inactive: IRAK-1-4 Inhibitor I 0.016 | ibrutinib 0.022 | [1] 0.008 | ralimetinib -0.007 | [2] -0.01 | [3] 0.08 | [4] -0.005 | pinometostat -0.038 | [5] 0.043 | [6] -0.002 | [7] 0.015 | [8] 0.026 | [9] 0.026 | [10] 0.007 | Nexturastat A -0.087 | vemurafenib 0.026 | [11] 0.029 | [12] -0.018 | givinostat -0.174 | barasertib -0.027

HSPA4 (UniProt P34932)
inactive: IRAK-1-4 Inhibitor I 0.009 | ibrutinib -0.016 | [1] 0.009 | ralimetinib -0.011 | [2] -0.005 | [3] -0.005 | [4] -0.009 | pinometostat -0.052 | [5] -0.01 | [6] 0 | [7] 0.02 | [8] -0.005 | [9] -0.017 | [10] 0.024 | Nexturastat A -0.045 | vemurafenib 0.007 | [11] 0.009 | [12] -0.006 | givinostat -0.047 | barasertib 0.019

HNRNPD isoform 4 (UniProt Q14103)
inactive: IRAK-1-4 Inhibitor I -0.138 | ibrutinib -0.022 | [1] 0.121 | ralimetinib 0.207 | [2] 0.127 | [3] 0.045 | [4] -0.19 | pinometostat 0.08 | [5] 0.03 | [6] -0.117 | [7] 0.01 | [8] 0.043 | [9] -0.108 | [10] 0.009 | Nexturastat A 0.163 | vemurafenib 0.031 | [11] -0.069 | [12] 0.038 | givinostat -0.022 | barasertib -0.094

HNRNPA1 (UniProt P09651)
inactive: IRAK-1-4 Inhibitor I -0.141 | ibrutinib 0.096 | [1] 0.148 | ralimetinib 0.158 | [2] 0.139 | [3] 0.109 | [4] 0.117 | pinometostat 0.252 | [5] -0.02 | [6] -0.073 | [7] 0.001 | [8] 0.021 | [9] -0.083 | [10] -0.127 | Nexturastat A 0.211 | vemurafenib -0.059 | [11] -0.061 | [12] 0.092 | givinostat 0.019 | barasertib -0.115

HGH1 (UniProt Q9BTY7)
inactive: IRAK-1-4 Inhibitor I -0.057 | ibrutinib -0.005 | [1] 0.128 | ralimetinib 0.244 | [2] -0.061 | [3] 0.089 | [4] 0.228 | pinometostat -0.01 | [5] -0.031 | [6] 0.09 | [7] 0.002 | [8] -0.038 | [9] 0.083 | [10] -0.001 | Nexturastat A 0.284 | vemurafenib 0.023 | [11] 0.022 | [12] 0.129 | givinostat 0.053 | barasertib 0.051

Reprinted from above (2 entries):
HSPA4 (UniProt P34932)
inactive: IRAK-1-4 Inhibitor I 0.009 | ibrutinib -0.016 | [1] 0.009 | ralimetinib -0.011 | [2] -0.005 | [3] -0.005 | [4] -0.009 | pinometostat -0.052 | [5] -0.01 | [6] 0 | [7] 0.02 | [8] -0.005 | [9] -0.017 | [10] 0.024 | Nexturastat A -0.045 | vemurafenib 0.007 | [11] 0.009 | [12] -0.006 | givinostat -0.047 | barasertib 0.019

HNRNPD isoform 4 (UniProt Q14103)
inactive: IRAK-1-4 Inhibitor I -0.138 | ibrutinib -0.022 | [1] 0.121 | ralimetinib 0.207 | [2] 0.127 | [3] 0.045 | [4] -0.19 | pinometostat 0.08 | [5] 0.03 | [6] -0.117 | [7] 0.01 | [8] 0.043 | [9] -0.108 | [10] 0.009 | Nexturastat A 0.163 | vemurafenib 0.031 | [11] -0.069 | [12] 0.038 | givinostat -0.022 | barasertib -0.094

Following part.

HSPG2 (UniProt P98160)
inactive: IRAK-1-4 Inhibitor I 0.058 | ibrutinib -0.022 | [1] -0.061 | ralimetinib 0.012 | [2] 0.041 | [3] 0.169 | [4] 0.071 | pinometostat 0.091 | [5] -0.003 | [6] 0.019 | [7] 0.005 | [8] 0.076 | [9] 0.013 | [10] -0.053 | Nexturastat A 0.127 | vemurafenib 0.039 | [11] -0.045 | [12] 0.009 | givinostat -0.015 | barasertib 0.033
